From patent US20050256159A1

By UniProt entry, the sequences of proteins in these tests, tags left out.
UniProt P28845, whole entry: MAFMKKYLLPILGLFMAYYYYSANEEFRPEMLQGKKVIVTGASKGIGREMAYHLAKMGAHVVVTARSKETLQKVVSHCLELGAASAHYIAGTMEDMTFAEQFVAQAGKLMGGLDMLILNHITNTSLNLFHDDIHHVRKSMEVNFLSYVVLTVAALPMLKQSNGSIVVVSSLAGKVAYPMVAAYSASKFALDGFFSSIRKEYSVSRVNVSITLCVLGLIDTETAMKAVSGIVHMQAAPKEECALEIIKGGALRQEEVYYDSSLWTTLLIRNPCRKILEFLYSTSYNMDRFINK

target: human 11βHSD1 (Homo sapiens, UniProt P28845); test: HeLa GRE4-βGal/11βHSD1 cell reporter assay (β-galactosidase production); conditions: HeLa GRE4-βGal/11βHSD1 cells, cortisone 1 μM, overnight incubation, β-galactosidase readout
Text: HeLa cells (human cervical carcinoma derived cells) were stably transfected with a construct containing four copies of the glucocorticoid response element (GRE) linked to a beta-galactosidase reporter gene (3 kb lac Z gene derived from pSV-B-galactosidase). These cells were then further stably transfected with a construct containing full-length human 11βHSD1 enzyme (in pCMVHyg) to create GRE4-βGal/11βHSD1 cells. The principal of the assay is as follows. Cortisone is freely taken up by the cells and is converted to cortisol by 11βHSD1 oxo-reductase activity and cortisol (but not cortisone) binds to and activates the glucocorticoid receptor. Activated glucocorticoid receptor then binds to the GRE and initiates transcription and translation of β-galactosidase. Enzyme activity can then be assayed with high sensitivity by colourimetric assay.
Cells were routinely cultured in DMEM (Invitrogen, Paisley, Renfrewshire, UK) containing 10% foetal calf serum (LabTech), 1% glutamine (Invitrogen), 1% penicillin & streptomycin (Invitrogen), 0.5 mg/ml G418 (Invitrogen) & 0.5mg/ml hygromycin (Boehringer). Assay media was phenol red free-DMEM containing 1% glutarine, 1% penicillin & streptomycin.
Compounds (1 mM) to be tested were dissolved in dimethyl sulphoxide (DMSO) and serially diluted into assay media containing 10% DMSO. […]
A cocktail (25 μl) consisting of 10× Z-buffer (600 mM Na2HPO4, 400 mM NaH2PO4.2H2O, 100 mM KCl, 10 mM MgSO4.7H2O, 500 mM β-mercaptoethanol, pH 7.0) SDS (0.2%), chlorophenol red-β-D-galactopyranoside (5 mM, Roche Diagnostics) was added per well and plates incubated at 37° C. for 3-4 hours. β-Galactosidase activity was indicated by a yellow to red colour change (absorbance at 570 nm) measured using a Tecan Spectrafluor Ultra.
The calculation of median inhibitory concentration (IC50) values for the inhibitors was performed using Origin 6.0 (Microcal Software, Northampton Mass. USA). Dose response curves for each inhibitor were plotted as OD units at each inhibitor concentration with relation to a maximum signal (cortisone, no compound) and IC50 values calculated. […]

IC50	SMILES
97 nM	COc1ccc(C(=O)C2CCN(C(=O)c3ccccc3OC(F)(F)F)CC2)cc1
254 nM	COc1ccc(C(=O)C2CCN(C(=O)c3ccc(F)cc3)CC2)cc1
50 nM	O=C(c1ccc(OC(F)(F)F)cc1)C1CCN(C(=O)c2ccc(F)cc2)CC1

The structures given here were assigned with low confidence; some may be wrong.
